This note sets out measurements from PMC10511717.

Results are given in words; binding and its absence hold for the method and conditions named. Some entries that bind do so weakly or less than the wild type.

The test addresses T1, human recombinant RANKL (human) (UniProt O14788).
T1 sequence: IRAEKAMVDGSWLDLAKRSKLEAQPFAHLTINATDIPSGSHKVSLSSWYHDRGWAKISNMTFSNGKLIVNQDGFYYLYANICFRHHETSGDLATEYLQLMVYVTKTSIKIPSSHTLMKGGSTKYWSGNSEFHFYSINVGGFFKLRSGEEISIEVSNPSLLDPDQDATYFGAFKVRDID
The test is described as follows: ELISA; solid phase binding assay: RANKL bound for 2 h to nickel-coated wells, OMD added overnight at 4 °C, bound OMD detected with biotinylated goat anti-human OMD and streptavidin-POD, read at 450 nm; OMD series on 0.2 μg/mL RANKL, and RANKL series (800 to 6.25 ng/mL) with 0.5 μg/mL OMD; negative controls without RANKL or without OMD; both purified. On the technique in general: ELISA stands for enzyme-linked immunosorbent assay.

B1: human recombinant osteomodulin (OMD) (protein, UniProt Q99983 21-421)
chain: QYETYQWDEDYDQEPDDDYQTGFPFRQNVDYGVPFHQYTLGCVSECFCPTNFPSSMYCDNRKLKTIPNIPMHIQQLYLQFNEIEAVTANSFINATHLKEINLSHNKIKSQKIDYGVFAKLPNLLQLHLEHNNLEEFPFPLPKSLERLLLGYNEISKLQTNAMDGLVNLTMLDLCYNYLHDSLLKDKIFAKMEKLMQLNLCSNRLESMPPGLPSSLMYLSLENNSISSIPEKYFDKLPKLHTLRMSHNKLQDIPYNIFNLPNIVELSVGHNKLKQAFYIPRNLEHLYLQNNEIEKMNLTVMCPSIDPLHYHHLTYIRVDQNKLKEPISSYIFFCFPHIHTIYYGEQRSTNGQTIQLKTQVFRRFPDDDDESEDHDDPDNAHESPEQEGAEGHFDLHYYENQE
B1: the binding result is recorded as “binds”.
